{"source": "paper PMC7819943", "about": "“Rice protein-binding microarrays: a tool to detect cis-acting elements near promoter regions in rice”", "note": "This is one part of the list."}
{"target": "T1, OsSMF1 (Oryza sativa, UniProt Q6ZLB0 1-436)", "T1 sequence": "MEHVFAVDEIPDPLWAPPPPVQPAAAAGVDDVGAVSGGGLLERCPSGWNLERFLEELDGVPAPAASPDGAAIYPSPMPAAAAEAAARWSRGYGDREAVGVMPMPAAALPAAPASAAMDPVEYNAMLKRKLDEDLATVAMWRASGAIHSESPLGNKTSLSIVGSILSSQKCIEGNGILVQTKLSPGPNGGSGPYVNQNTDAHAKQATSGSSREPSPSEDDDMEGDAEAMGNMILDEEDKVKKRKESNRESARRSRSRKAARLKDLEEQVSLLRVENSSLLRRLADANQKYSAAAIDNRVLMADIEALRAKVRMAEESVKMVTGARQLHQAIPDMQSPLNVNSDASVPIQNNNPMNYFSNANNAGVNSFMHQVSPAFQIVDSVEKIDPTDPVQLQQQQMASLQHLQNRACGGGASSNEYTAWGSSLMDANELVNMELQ", "test": "protein-binding microarray (RPBM); PBS, 2% BSA, 51.3 ng/ul salmon testes DNA, 50 uM zinc acetate, 200 nM TF, 25 C, 1 h; high values mean tight binding", "settings": "protein: recombinant; tags: N-terminal polyhistidine and DsRed monomer fusion (pET32a); chain copies: 2; label: CyDye5-dUTP incorporated in the synthesized complementary strand; 3' TTTTT single-stranded linker to array surface; dsDNA, one strand shown", "procedure,_shortened": "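Transcription factors, each fused N-terminally to a polyhistidine tag and DsRed, were expressed in E. coli BL21-CodonPlus and purified on Ni–NTA. A custom Agilent array was made double-stranded by primer extension with Cy5-dUTP and blocked with 2% BSA. It was incubated with 200 nM protein in PBS, 2% BSA, salmon testes DNA and 50 µM zinc acetate at 25 °C for 1 h, then washed. The binding signal is per-feature fluorescence intensity (arbitrary units) read on an Axon 4000B scanner.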"}
{"sequence": "CCACTTCGTAGTCGTAGTTCAGCATATCAGCCACTCTTTCCGGAGTCACCTAGTGCAG", "binding signal": "3270 fluorescence intensity (a.u.)"}
{"sequence": "GCACTTAGTCACGCCAAGACGGAGGTGACATGTGTTCGTTCGGAGTCACCTAGTGCAG", "binding signal": "4070 fluorescence intensity (a.u.)"}
{"sequence": "CAACCCACGCAACTCCAGCTTACCGTGGCCGCCGCCACCCCGGAGTCACCTAGTGCAG", "binding signal": "3540 fluorescence intensity (a.u.)"}
{"sequence": "AATGTCATCCACTCGAGCGCGAGAGAATGTATTAGCCACGCGGAGTCACCTAGTGCAG", "binding signal": "3190 fluorescence intensity (a.u.)"}
{"sequence": "CCAACGGTTGAAACTATTTTGATGACGTGGCTAAATGTGGCGGAGTCACCTAGTGCAG", "binding signal": "24800 fluorescence intensity (a.u.)"}
{"sequence": "CTGACTGGGTAGGAGGAAGGTGGAGGTGGGGAGGATGCGGCGGAGTCACCTAGTGCAG", "binding signal": "3510 fluorescence intensity (a.u.)"}
{"sequence": "CCTCGAGATGGTGATCTCATGGTTGTCTATGTGGAGCTTTCGGAGTCACCTAGTGCAG", "binding signal": "3930 fluorescence intensity (a.u.)"}
{"sequence": "GGCTAGTCTCTAGGCCCTTGCAGTTTATTCCGCGTTCGTGCGGAGTCACCTAGTGCAG", "binding signal": "3360 fluorescence intensity (a.u.)"}
{"sequence": "ACCTACATGTGCGTAATATTCGTGGACACCAGGATTTAAACGGAGTCACCTAGTGCAG", "binding signal": "3510 fluorescence intensity (a.u.)"}
{"sequence": "TGGCGGAAGGGGCGGCCGCTGAGCGACGCCACGTCGGATACGGAGTCACCTAGTGCAG", "binding signal": "12000 fluorescence intensity (a.u.)"}
{"sequence": "AGACCACATAGAATGGAAGCGTCATCAGTTTCCACGCAATCGGAGTCACCTAGTGCAG", "binding signal": "6480 fluorescence intensity (a.u.)"}
{"sequence": "GTAAGTCCACCTGTCTATATGCAATATTGCTTTGTCCACGCGGAGTCACCTAGTGCAG", "binding signal": "22800 fluorescence intensity (a.u.)"}
{"sequence": "CTGGAAGCAACCAAAGATGGAGGATGGGGTTTTGTGGTACCGGAGTCACCTAGTGCAG", "binding signal": "3310 fluorescence intensity (a.u.)"}
{"sequence": "CAGTAAGCTAGCAAACAAACACACAAGAATATTTGTGATCCGGAGTCACCTAGTGCAG", "binding signal": "39900 fluorescence intensity (a.u.)"}
{"sequence": "GCTTTCAAAGCACTCAATTTTCCAGGTCATAACTGTTTTCCGGAGTCACCTAGTGCAG", "binding signal": "5050 fluorescence intensity (a.u.)"}
{"sequence": "CGTGCTCACGAAACCCGATCGATCGGTGATCTGCACCGTCCGGAGTCACCTAGTGCAG", "binding signal": "45200 fluorescence intensity (a.u.)"}
{"sequence": "GCAGGTCCTCCATCAACGTCGCCGTACGTGTTCCGCCGGCCGGAGTCACCTAGTGCAG", "binding signal": "4140 fluorescence intensity (a.u.)"}
{"sequence": "CATCTGACGGCGCATGCATGGCGAGGGACTGTAGTACTGTCGGAGTCACCTAGTGCAG", "binding signal": "3250 fluorescence intensity (a.u.)"}
{"sequence": "CTGGTCGGCGCGGGCACGCGCTTGCGGAGGCTGGGGAGTCCGGAGTCACCTAGTGCAG", "binding signal": "39700 fluorescence intensity (a.u.)"}
{"sequence": "TAAAGGTGTAATCCCAAATTTCTTCTCGTCATCCGAACATCGGAGTCACCTAGTGCAG", "binding signal": "3400 fluorescence intensity (a.u.)"}
{"sequence": "ATCCAAGCCGTCCATCTTCACCCGTCACTGTCACTCGCCACGGAGTCACCTAGTGCAG", "binding signal": "3510 fluorescence intensity (a.u.)"}
{"sequence": "ATCAGCTTACGTTGGCATGTGTTCCCCACCGAATGAAACGCGGAGTCACCTAGTGCAG", "binding signal": "3520 fluorescence intensity (a.u.)"}
{"sequence": "CTCCCCACTAGTGTGACTGTGTGAGTGGTTGTACTCTGTACGGAGTCACCTAGTGCAG", "binding signal": "3410 fluorescence intensity (a.u.)"}
{"sequence": "TCCTTAAATTTGTAGGGTTGTGTCATATAGGTCCCTAAACCGGAGTCACCTAGTGCAG", "binding signal": "4150 fluorescence intensity (a.u.)"}
{"sequence": "GTGTGTGGCAGTAGCAGCCAGATCTCGGCCCCGGCCCCGGCGGAGTCACCTAGTGCAG", "binding signal": "16100 fluorescence intensity (a.u.)"}
{"sequence": "GAACACCATACACGTCCGGCTTCTCATGCGTCCACCGCTGCGGAGTCACCTAGTGCAG", "binding signal": "22700 fluorescence intensity (a.u.)"}
{"sequence": "CAATCGCACGCGGTACACAACTAGTCGTTAATTAGCAATTCGGAGTCACCTAGTGCAG", "binding signal": "15300 fluorescence intensity (a.u.)"}
{"sequence": "CGCTAACATGACATGGTATGGTGACGCTTAGGTGTCAGCACGGAGTCACCTAGTGCAG", "binding signal": "9460 fluorescence intensity (a.u.)"}
{"sequence": "GCCAACAAGGAAGCGATGGAGACACGGCAACCCAGGAGCCCGGAGTCACCTAGTGCAG", "binding signal": "3570 fluorescence intensity (a.u.)"}
{"sequence": "GGCCGCACCACCATTCCACCCGTCCACCTCGTTGCCTCCGCGGAGTCACCTAGTGCAG", "binding signal": "3140 fluorescence intensity (a.u.)"}
{"sequence": "AGTCACTCAAAGAATGCCAAGGAGGAAACTGAGAAAATGTCGGAGTCACCTAGTGCAG", "binding signal": "23700 fluorescence intensity (a.u.)"}
{"sequence": "CCCATAGGCTGGACTCTCTCTCTTTCTCCTACTCCTCCTGCGGAGTCACCTAGTGCAG", "binding signal": "3200 fluorescence intensity (a.u.)"}
{"sequence": "TCACTTCACAGATTCACACACACACACACACACACTCTCTCGGAGTCACCTAGTGCAG", "binding signal": "3410 fluorescence intensity (a.u.)"}
{"sequence": "CTTTAGGTGTTGCGGTCATACTTGTCAACTTGTCACAAAACGGAGTCACCTAGTGCAG", "binding signal": "3560 fluorescence intensity (a.u.)"}
{"sequence": "GCCGCGACGTGACGTGACGTCACGCATTTGTCACTTTCTCCGGAGTCACCTAGTGCAG", "binding signal": "9380 fluorescence intensity (a.u.)"}
{"sequence": "CCATTGTGCCCCGCCCACTGACTCACTGGCCCCACCCACACGGAGTCACCTAGTGCAG", "binding signal": "5400 fluorescence intensity (a.u.)"}
{"sequence": "GCTTCCTGATAGAAATCGCAGATGACACTGTGCCCAAACGCGGAGTCACCTAGTGCAG", "binding signal": "4010 fluorescence intensity (a.u.)"}
{"sequence": "TACATATACAAATCCTAGAACTTGTCATAGTGTGTTATCTCGGAGTCACCTAGTGCAG", "binding signal": "15900 fluorescence intensity (a.u.)"}
{"sequence": "TCAATAACCGCGATAAAAGCTAGGTAGCTGACGTGGCACACGGAGTCACCTAGTGCAG", "binding signal": "22300 fluorescence intensity (a.u.)"}
{"sequence": "TTAGTATGTGATTAATTTAGTATTAATTATTTAACTATAACGGAGTCACCTAGTGCAG", "binding signal": "31900 fluorescence intensity (a.u.)"}
{"sequence": "TTGCTTTTGAATAAGTGATTCTCATGATATGACGTGTTTGCGGAGTCACCTAGTGCAG", "binding signal": "12100 fluorescence intensity (a.u.)"}
{"sequence": "AATCCTTAATGCGCCTGGAATTGTTGCACTCAAGTAAAGCCGGAGTCACCTAGTGCAG", "binding signal": "12300 fluorescence intensity (a.u.)"}
